Experimental data: patent US20060188903A1, “Implantation serine proteinases” (priority 2001, published 2006)

Target: Implantation Serine Proteinase 2 (ISP2) (mouse)
Assay: Western blot of uterine material; no details given

binding: binds
B1: Implantation Serine Proteinase 1 (ISP1) (enzyme)
chain: KPVGIVGGQRTPPGKWPWQVSLRMYSYEVNSWVHICGGSIIHPQWILTAAHCIQSQDADPAVYRVQVGEVYLYKEQELLTISRIIIHPDYNDVSKRFDLALMQLTALLVTSTNVSPVSLPKDSSTFDSTDQCWLVGWGNLLQRVPLQPPYQLHEVKIPIQDNKSCKRAYRKKSSDEHKAVAIFDDMLCAGTSGRGPCFGVSGGPLVCWKSNKWIQVGVVSKGIDCSNNQPSIFSRVQSSLAWIHQHIQ

Results are given in words; binding and its absence hold for the method and conditions named. Binding can be weak; no strength is given.
